According to article doi:10.1101/2025.10.24.684325:
No constants are given. Whether binding was seen depends on the method and setting. Binding seen in cells or lysates may run through a third protein. Some entries that bind do so weakly or less than the wild type.

Target: T1, TMEM100 (transmembrane protein 100), precipitated with anti-TMEM100 (mouse (endogenous in PVECs)) (UniProt Q9CQG9)
T1 sequence: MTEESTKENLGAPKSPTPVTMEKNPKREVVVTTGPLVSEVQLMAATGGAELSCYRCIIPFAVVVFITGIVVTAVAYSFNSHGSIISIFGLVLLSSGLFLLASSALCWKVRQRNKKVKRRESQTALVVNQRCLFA
Assay: co-IP

B1: PRDX1 (protein, UniProt P35700 1-199)
chain: MSSGNAKIGYPAPNFKATAVMPDGQFKDISLSEYKGKYVVFFFYPLDFTFVCPTEIIAFSDRADEFKKLNCQVIGASVDSHFCHLAWINTPKKQGGLGPMNIPLISDPKRTIAQDYGVLKADEGISFRGLFIIDDKGILRQITINDLPVGRSVDEIIRLVQAFQFTDKHGEVCPAGWKPGSDTIKPDVNKSKEYFSKQK
In the case of B1, the binding is reported as “binds”.
